From US10280200B2, “Non-natural consensus albumin binding domains” (Janssen Biotech, Inc., priority 2012, dated 2019)
Part of at least one peptide drawing is inferred or uncertain, most often the ends. Ends that are not written are not given here.

Assay: Stability on storage at 4° C. for months, SDS-PAGE
Assay type: physicochemical
Settings: stored for several months at 4° C.

LAEAKVLANRELDKYGVSDYYKNLINNAKTVEGVKALIDEILAA [native ABD]
state of purified lots after storage: inactive and undetectable in solution by SDS-PAGE
